The text below walks through data of PMC3009721.

Amino acid sequences for entries named in this document (tags omitted).
UniProt Q39026: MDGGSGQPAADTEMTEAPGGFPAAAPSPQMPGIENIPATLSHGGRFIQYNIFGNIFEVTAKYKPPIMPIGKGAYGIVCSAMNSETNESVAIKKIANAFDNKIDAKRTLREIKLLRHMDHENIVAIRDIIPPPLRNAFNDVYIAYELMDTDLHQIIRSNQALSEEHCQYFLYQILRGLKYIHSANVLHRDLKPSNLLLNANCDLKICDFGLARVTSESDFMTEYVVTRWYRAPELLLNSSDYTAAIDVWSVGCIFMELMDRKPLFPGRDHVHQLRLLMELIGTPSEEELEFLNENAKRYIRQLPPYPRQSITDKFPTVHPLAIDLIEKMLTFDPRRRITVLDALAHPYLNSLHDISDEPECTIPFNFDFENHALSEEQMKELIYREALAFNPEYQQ

The target of experiment [1] is T1, AP2C3 in pBTM116 (Arabidopsis) (UniProt Q9XEE8).
T1 sequence: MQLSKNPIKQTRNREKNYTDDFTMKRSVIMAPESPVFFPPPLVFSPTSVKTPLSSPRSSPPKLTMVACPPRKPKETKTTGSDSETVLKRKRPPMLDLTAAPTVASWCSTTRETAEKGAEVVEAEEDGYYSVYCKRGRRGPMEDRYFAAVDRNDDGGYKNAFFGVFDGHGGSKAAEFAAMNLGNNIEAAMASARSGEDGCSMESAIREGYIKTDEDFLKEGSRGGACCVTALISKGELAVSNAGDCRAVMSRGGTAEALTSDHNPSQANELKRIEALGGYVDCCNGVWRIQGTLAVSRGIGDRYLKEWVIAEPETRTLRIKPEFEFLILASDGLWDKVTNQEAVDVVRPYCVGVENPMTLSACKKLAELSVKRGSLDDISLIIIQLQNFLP
As to the kind of experiment: two-hybrid; quantitative beta-galactosidase measurements; pBTM116-AP2C3 with 18 MAPKs in the pGAD424 vector in L40 yeast cells.

Experiment [2] concerns the target T2, YFPntd-AP2C3 (Arabidopsis) (UniProt Q9XEE8).
T2 sequence: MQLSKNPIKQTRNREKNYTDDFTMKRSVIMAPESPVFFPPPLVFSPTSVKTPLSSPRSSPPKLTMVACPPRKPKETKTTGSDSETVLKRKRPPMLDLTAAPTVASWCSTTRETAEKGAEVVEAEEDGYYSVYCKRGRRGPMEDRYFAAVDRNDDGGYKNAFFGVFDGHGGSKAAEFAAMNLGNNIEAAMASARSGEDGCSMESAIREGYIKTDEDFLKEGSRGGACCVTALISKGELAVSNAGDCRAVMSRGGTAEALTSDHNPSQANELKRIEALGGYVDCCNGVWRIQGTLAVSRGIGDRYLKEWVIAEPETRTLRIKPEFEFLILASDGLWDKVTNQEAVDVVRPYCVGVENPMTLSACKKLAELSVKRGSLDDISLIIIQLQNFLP
As to the kind of experiment: split reporter; split-YFP BiFC; YFPntd-PP2Cs co-transfected with YFPctd-MAPKs in Arabidopsis suspension culture protoplasts, reconstituted fluorescence detected by microscopy.

Experiment [3] deals with T3, AP2C3 (Arabidopsis protein phosphatase 2C) in pBD-GAL4cam (Arabidopsis) (UniProt Q9XEE8).
T3 sequence: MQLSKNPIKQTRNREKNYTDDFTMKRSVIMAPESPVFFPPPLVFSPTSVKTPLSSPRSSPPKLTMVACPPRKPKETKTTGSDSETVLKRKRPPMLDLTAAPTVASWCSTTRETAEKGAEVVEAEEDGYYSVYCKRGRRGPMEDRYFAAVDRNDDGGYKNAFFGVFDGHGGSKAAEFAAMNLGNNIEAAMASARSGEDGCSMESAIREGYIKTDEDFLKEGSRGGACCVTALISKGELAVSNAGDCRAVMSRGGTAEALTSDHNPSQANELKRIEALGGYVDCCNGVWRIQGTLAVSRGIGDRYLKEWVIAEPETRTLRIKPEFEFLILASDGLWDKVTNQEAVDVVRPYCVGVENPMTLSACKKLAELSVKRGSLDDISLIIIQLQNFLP
In words: two-hybrid; pBD-GAL4cam-PP2C with pAD-MAPK vectors cotransformed in yeast strain PJ-69A (pJ694A in the legend); growth on selective plates.

These are yes or no findings as the source states them, for the method shown. For some of these results: Binding seen in cells or lysates may run through a third protein. Some results given as binding are weak or reduced against the parent protein; the word gives no strength.

“MPK6 in pGAD424 (from UniProt Q39026 1-395) (enzyme)”: the binding result in experiment [1] is given as “binds”.
“YFPctd-MPK6 (from UniProt Q39026 1-395) (enzyme)”: the binding result in experiment [2] was “binds”.
With “pAD-MPK6 (from UniProt Q39026 1-395) (enzyme)”, in experiment [3], the binding result is on record as “binds”.

B1: YFPctd-MPK3 (enzyme, UniProt Q39023 1-370)
chain: MNTGGGQYTDFPAVETHGGQFISYDIFGSLFEITSKYRPPIIPIGRGAYGIVCSVLDTETNELVAMKKIANAFDNHMDAKRTLREIKLLRHLDHENIIAIRDVVPPPLRRQFSDVYISTELMDTDLHQIIRSNQSLSEEHCQYFLYQLLRGLKYIHSANIIHRDLKPSNLLLNANCDLKICDFGLARPTSENDFMTEYVVTRWYRAPELLLNSSDYTAAIDVWSVGCIFMELMNRKPLFPGKDHVHQMRLLTELLGTPTESDLGFTHNEDAKRYIRQLPNFPRQPLAKLFSHVNPMAIDLVDRMLTFDPNRRITVEQALNHQYLAKLHDPNDEPICQKPFSFEFEQQPLDEEQIKEMIYQEAIALNPTYG
With B1, the binding entry in experiment [2] was “binds”.
